Here are results for eight molecules from patent US5389687A, “Ring-substituted 2-amino-1,2,3,4-tetra-hydronaphthalenes” (Eli Lilly and Company, priority 1991, dated 1995).

This series relates to conscious spontaneous hypertensive rats (SHR). As to the kind of experiment: Effect on heart rate after i.v. administration to conscious SHR. It counts as in vivo. As to conditions: i.v., 0.3, 1.0 and 3.0 mg/kg. The protocol:
The compounds of this invention are also effective in reducing blood pressure. The blood pressure lowering effect of the compounds of this invention was determined in conscious spontaneous hypertensive rats (SHR; 325-425 g). The rats were anesthetized with halothane (2% in nitrous oxide and oxygen) and were implanted with femoral arterial and venous catheters. The tips of arterial and venous catheters-were positioned in the abdominal aorta below the renal arteries and lower abdominal vena cava, respectively. The catheters were routed subcutaneously to an exit point at the base of the skull and then through a small leather harness fastened around the forequarters of each animal. The animals were allowed a 3- to 4-day recovery period after surgery. On the day before an experiment, each rat was conditioned to the experimental surroundings for 6 hours. On the day of the experiment, the harness on the back of each animal was connected to a spring tether through which arterial and venous extension tubing was routed. The other end of the tubing was connected to a water tight swivel. This system permitted direct recording of blood pressure in conscious free moving animals. Mean arterial blood pressure was measured via a Statham strain gauge transducer (P23DB, Statham Instruments, Oxnard, Calif.) and recorded on a multichannel oscillograph (Beckman Model R611, Beckman Instruments, Palo Alto, Calif.). A minimum 30-minute equilibration period was observed prior to the experimental protocol during which time the animals preened and blood pressure was quite labile. Afterward, the animals appeared to sleep and pressure was stable. Following a control blood pressure measurement, rats were dosed with the compound or vehicle i.v., and pressure was monitored at various time intervals thereafter.
^1 Standard protocol recorded the blood pressure and heart rate
responses after 0.3, 1.0 and 3.0 mg/kg i.v. Dose response curves were
plotted using the % change in pressure from pretreatment control values a
15 and 30 minutes after treatment.
Corr = correlation coefficient for the linear relationship between the lo
dose(s) and % change (y) in pressure. Values of 1.0 = perfect correlation
Pos = Positive slope of dose response
HR Index = ED15 for Heart Rate divided by ED25 for Blood

Take `CCN(CC)C1CCc2cccc(Cl)c2C1` (stereo not shown) [Example 2, 2-Diethylamino-8-chloro-1,2,3,4-tetrahydronaphthalene]: the “Heart Rate Corr. (correlation coefficient)” value (15 min. after treatment) is on record as 0.30 and the “Heart Rate Corr. (correlation coefficient)” value (30 min. after treatment) is 0.92.
Taken in the same sequence, the figures for `CCCN(CCC)C1CCc2cccc(C(N)=O)c2C1` (stereo not shown) [Example 16, 2-Di-n-propylamino-8-carboxamido-1,2,3,4-tetrahydronaphthalene] were 0.99 and 0.91.
Taken in the same sequence, the figures for `CCCN(CCC)C1CCc2cccc(C(=O)OC)c2C1` (stereo not shown) [Example 7, 2-Di-n-propylamino-8-methoxycarbonyl-1,2,3,4-tetrahydronaphthalene] were 0.99 and 0.99.
For `CNC1CCc2cccc(Cl)c2C1` (stereo not shown) [Example 12, 2-Methylamino-8-chloro-1,2,3,4-tetrahydronaphthalene], in that order: 0.29 and 0.81.
Regarding `CCCNC1CCc2cccc(Cl)c2C1` (stereo not shown) [Example 10, 2-n-Propylamino-8-chloro-1,2,3,4-tetrahydronaphthalene], the “Heart Rate Corr. (correlation coefficient)” value came to 0.97 (15 min. after treatment) and 0.97 (30 min. after treatment).
As to `CN(C)C1CCc2cccc(Cl)c2C1` (stereo not shown) [Example 11, 2-Dimethylamino-8-chloro-1,2,3,4-tetrahydronaphthalene], the “Heart Rate Corr. (correlation coefficient)” value reads like this: (15 min. after treatment) 0.98; (30 min. after treatment) 0.88.
For `CCCN(CCC)C1CCc2cccc(CO)c2C1` (stereo not shown) [Example 21, 2-Di-n-propylamino-8-hydroxymethyl-1,2,3,4-tetrahydronaphthalene], in that order: 0.60 and 0.51.
Taken in the same sequence, the figures for `CCCN(CCC)C1CCc2cccc(Cl)c2C1` (stereo not shown) [Example 1, 2-Di-n-propylamino-8-chloro-1,2,3,4-tetrahydronaphthalene] were 0.90 and 0.97.
